# Reference: PubChem BioAssay AID2685 (National Center for Advancing Translational Sciences (NCATS), 2010)
# Some of the results follow. Further columns of the screen follow, without active or inactive calls. The list favours compounds with an active or inconclusive main result. The note in brackets gives the kind of curve behind each potency; many fits are weak.
# Experiment: qHTS Assay for Lipid Storage Modulators in Drosophila S3 Cells;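 for cell number change: cells counted by Cell Tracker Red CMTPX staining in the red channel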
# Conditions: BODIPY lipid droplet fluorescence, 18-24 h; for cell number change: measured here: cell count max response, cells fed with added oleic acid
# Procedure, shortened: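 Laser-scanning cytometry quantifies lipid droplet accumulation (500–530 nm total intensity; droplet/cell object ratio) in oleic acid-fed (400 uM added) Drosophila S3 cells treated with a concentration series. 20 uM Triacsin C defined 100% inhibition.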
# [1] = measured here: cell number channel AC50, cells fed with added oleic acid
# [2] = measured here: lipid fluorescence (Fed channel) AC50, cells fed with added oleic acid
Structure (SMILES),cell number change [%],AC50 [1],AC50 [2]
Cc1csc(Nc2ccc(C(=O)O)cc2)n1,19.3,"4610 nM [falling, single point]","5800 nM [falling, single point]"
CC(C(=O)NCCc1ccc(Cl)cc1)n1c(=O)c2cccn2c2cccnc21 (stereo not given),,,"731 nM [falling, full curve]"
COc1ccc(CCCNC(=O)CC#N)cc1OC,-25.1,"4.11 nM [falling, full curve, poor fit]","461 nM [falling, full curve, poor fit]"
S=c1[nH]nc(C2CCCCC2)o1,-1.36,"731 nM [falling, full curve]",
CCOC(=O)c1c(N)sc(C(=O)Nc2ccccc2F)c1C,8.59,,"103 nM [rising, full curve, poor fit]"
COc1ccc(CN(C)C(=O)c2[nH]c(C)c(C(C)=O)c2C)c(OC)c1OC,16.2,,
Cc1ccc(Cn2ncc3c(NCCN(C)C)ncnc32)cc1,31.7,"4.11 nM [rising, full curve, poor fit]",
CCCc1cc(C(=O)Nc2c(C)n(C)n(-c3ccccc3)c2=O)no1,,,"29100 nM [rising, single point]"
Cn1c(=O)c2c(nc(NCc3ccccc3)n2CC(=O)NCc2ccccc2)n(C)c1=O,-1.75,,"731 nM [rising, single point]"
CSCCC(NS(=O)(=O)c1ccc(C)cc1)C(=O)NC1CCCCCC1 (stereo not given),7.33,,"23100 nM [rising, single point]"
CC(=O)Nc1ccc(NS(C)(=O)=O)cc1,-42.3,"3660 nM [falling, full curve]","3660 nM [falling, full curve]"
CCC(C)C(NC(=O)c1ccccc1NC(=O)c1ccc(OC)cc1)C(=O)NCCCn1ccnc1 (stereo not given),4.58,,
NS(=O)(=O)c1ccc(NC(=O)CCC(=O)c2ccc(Cl)s2)cc1,-23.8,,"1300 nM [rising, partial curve]"
COc1ccc(-n2c(C)cc(/C=C3\C(=N)N4N=C(CC(=O)N5CCOCC5)SC4=NC3=O)c2C)cc1,30.9,"1840 nM [rising, full curve]","580 nM [rising, single point]"
COc1ccc(NC(=O)C(c2ccccc2)N(C)C(=O)CNC(C)=O)cc1 (stereo not given),-11.2,,
O=c1cc(O)nc(-c2ccccc2)s1,35,,"7310 nM [rising, partial curve, poor fit]"
Cn1c(-c2ccsc2)c(-c2cccs2)c2cc(-c3cccc4[nH]ccc34)ccc21,18.4,,
Cc1ccc(NC(=S)c2nc3ccccc3[nH]2)c(C)c1,1.6,,
O=[N+]([O-])c1ncccc1OCc1ccc(-c2ccccc2)cc1,-8.33,,

Structure (SMILES),cell number change [%],AC50 [1],AC50 [2]
CCOc1ccccc1CNC(=O)C1CCN(C(=O)c2sccc2-n2cccc2)CC1,-27.2,,"4.61 nM [rising, full curve, poor fit]"
COc1ccc(C(C#N)(CC(=O)O)c2cnccn2)cc1OC (stereo not given),19,,"731 nM [rising, full curve, poor fit]"
Cc1ccoc1C(=O)Nc1ccc(CC(=O)O)cc1,-29.5,"1460 nM [falling, full curve, poor fit]","3660 nM [falling, full curve]"
COc1ccc(C2=C(c3ccc([N+](=O)[O-])cc3)C(=O)OC2)cc1,25.1,,"651 nM [rising, single point]"
C/C(=N\Nc1nc(-c2ccc(C)cc2C)cs1)c1cc2ccccc2oc1=O,16.3,,"25900 nM [rising, partial curve, poor fit]"
O=C1CCCN1CCCNc1ncnc2c1[nH]c1ccc(Cl)cc12,,"3260 nM [rising, partial curve]","3660 nM [rising, partial curve]"
CCCCN(C)C(=O)c1cc2cc3ccc(OC)cc3nc2s1,-5.74,,"4610 nM [falling, full curve, poor fit]"
CCOP(=O)(OCC)C(NC(=O)NS(=O)(=O)c1ccc(C)cc1)c1ccccc1 (stereo not given),,,"291 nM [rising, partial curve]"
O=C(Cn1ncc2c1-c1ccccc1OC2)N(Cc1ccco1)C1CCCCC1,18.2,"1160 nM [rising, single point]","9200 nM [rising, single point]"
COc1cccc(C2c3[nH]c4ccccc4c3C[C@H]3C(=O)N(CCCO)CC(=O)N23)c1OC (stereo not given in full),22.5,,"6510 nM [rising, single point]"
O=C(CSc1nc2ccccc2o1)Nc1ccc(N2CCOCC2)c(Cl)c1,-31.4,"11600 nM [falling, partial curve]","16400 nM [falling, partial curve, poor fit]"
COc1cc(/C=N/NC(=O)c2c(C)nc3ccc(Cl)cn23)cc(OC)c1OC,-8.42,,
Fc1ccc(C2CCCCN2Cc2nc(CC3CC3)no2)cc1 (stereo not given),5.58,,"116 nM [rising, full curve, poor fit]"
Cc1ccc(NC(=O)CCN2CCN(C)CC2)cc1,-12.3,,"58 nM [falling, full curve, poor fit]"
Cc1ccccc1C(=O)NCCSc1ccccc1,,,"651 nM [falling, single point]"
CCCCOC(=O)C1CN(c2ccccc2)N=C1C(C)=O (stereo not given),-55.6,"29100 nM [falling, single point]","29100 nM [falling, single point]"
Fc1ccc(C(CNC(=S)NC2CCCCC2)N2CCOCC2)cc1 (stereo not given),6.22,"6510 nM [rising, single point]","3660 nM [rising, partial curve]"
Cc1cc(SCC(=O)Nc2cccnc2Cl)nc2ccccc12,,"651 nM [rising, single point]","651 nM [rising, partial curve, poor fit]"
CCn1c(COc2ccc(C)cc2)nnc1SCc1ccc(C#N)cc1,-32.3,"18400 nM [falling, single point]","580 nM [rising, single point]"

# 3 structures already listed, ordered by molecular weight, smallest number first.
Structure (SMILES),cell number change [%],AC50 [1],AC50 [2]
O=C1CCCN1CCCNc1ncnc2c1[nH]c1ccc(Cl)cc12,,"3260 nM [rising, partial curve]","3660 nM [rising, partial curve]"
C/C(=N\Nc1nc(-c2ccc(C)cc2C)cs1)c1cc2ccccc2oc1=O,16.3,,"25900 nM [rising, partial curve, poor fit]"
O=C(CSc1nc2ccccc2o1)Nc1ccc(N2CCOCC2)c(Cl)c1,-31.4,"11600 nM [falling, partial curve]","16400 nM [falling, partial curve, poor fit]"
